# Measured values from patent US20250090554A1, “A METHOD OF TREATING DEPRESSION BY IMMUNE MODULATION” (MYND LIFE SCIENCES INC., priority 2021, published 2025).
# For at least one compound, name, drawing or mass did not settle the structure.
# Experiments:
# ABCF1 [1] = assay: ABCF1 real time RT-PCR in RAW macrophage cell line treated with drugs; format: cell-based, murine; settings: Escitalopram 0.6 nM, Psilocybin 500 nM, 2 hrs; vs untreated control
# Description: FIG. 1 illustrates that Escitalopram induces ABCF1 in a Macrophage cell line: RAW macrophages were plated at 1×10^5 cells/well and cultured for 2 days. The cells were incubated with 0.3 mM Escitalopram for 1 hour, and then harvested for total RNA, which was extracted for real time RT-PCR specific for ABCF1 and IL-4. CT values were normalized with CT value for the housekeeping gene from the DMSO control. The difference in the expression after drug treatment is consistent with polarization towards an M2-like phenotype (data were consistent in 3 separate experiments).
# FIG. 2 illustrates the effect of psylocibin, psylocin and their analogs on ABCF1 transcription in a macrophage cell line. Briefly, the Macrophage cell line RAW264.7 (ATCC) were grown to 80% confluency in growth media (DMEM+10% FBS+glutamine). Dilutions of psylocibin, psylocin and their analogs were made at desired final concentrations for a Dose response experiment. The concentrations' used for this experiment are: 10 nM, 100 nM, 500 nM for Psilocin, Psylocibin, 4-Acetoxy-N, N-dimthyltryptamine, O-Acetyl Psilocin Fumerate, and 4-acetoxyindole. The cells were incubated for 2 hours and then harvested for total RNA, which was extracted for real time RT-PCR specific for ABCF1. […]
# • 1. […] Normalized against the expression level of GAPDH, the fold change expression level of ABCF1 was calculated and tabulated for all treatment conditions.
# ABCF1 [2] = assay: ABCF1 expression in bone marrow after in vivo drug treatment of mice; design: species or system mice (C57Bl/6); settings: Escitalopram 50 mg/kg, psilocybin 25 mg/kg, 30 minutes
# Description: • Species strain: C57Bl/6 • Tissues collected: Brain, Bone marrow, PBMC • Drug treatment: • a. 30 minutes Drug treatment (PBS control, Escitalopram 50 mg/kg, Psilocybin 25 mg/kg) • b. 30 minutes Drug treatment after 30 minutes LPS stimulation (PBS control, Escitalopram 50 mg/kg, O-Acetyl Psilocin Fumarate (APF) 25 mg/kg, 4-AcetoxyIndole (AOI) 2.5 mg/kg, 4-AcO-DET (AODET) 25 mg/kg) • Method: • Weighed and injected the drug into the mice by Intraperitoneal injection. • Euthanized the mice 30 minutes after injections with isoflurane and CO2 • Post cervical Dislocation performed cardiac puncture to collect the whole blood from mice. • Opened the cephalic bone to collect the whole brain. • Removed the skin and muscles, took out both femur and tibia for bone marrow collection. • Tissue process procedures: • Brain—flash frozen and stored hemisphere in-80 for further molecular experiments and sent another part with buffer for sequencing. The frozen Brains were Dounce-homogenized. […]
# ABCF1 [3] = assay: ABCF1 expression in whole brain after in vivo drug treatment of mice; design: species or system mice (C57Bl/6); settings: Escitalopram 50 mg/kg, psilocybin 25 mg/kg, 30 minutes
# ABCF1 [4] = assay: Pretreatment of ABCF1+/- and WT mice before LPS challenge (planned); format: in vivo; settings: 4 weeks pretreatment prior to LPS challenge
# [5] = tested on: ABCF1-/- macrophages/microglia; assay: Anti-inflammatory effect in ABCF1 knock-out macrophages/microglia, RNAseq (planned); format: cell-based
compound,measurement,setting,value
"CN(C)CCc1c[nH]c2cccc(OP(=O)(O)O)c12 [Psilocybin, [3-(2-Dimethylaminoethyl)-1H-indol-4-yl] dihydrogen phosphate]",ABCF1 expression in RAW macrophages cell cultures,ABCF1 [1],induces ABCF1 expression
same,ABCF1 expression in the bone marrow,ABCF1 [2],induces ABCF1 expression
same,ABCF1 expression in the whole brain,ABCF1 [3],induce ABCF1 expression
same,ABCF1 production after pretreatment of mice (expected),ABCF1 [4],increased ABCF1 production
same,Inflammation (expected effect by upregulating ABCF1),[5],reduce inflammation
